Data published in patent publication US20140088178A1, “COMBINATION OF ANTI-CLUSTERIN OLIGONUCLEOTIDE WITH ANDROGEN RECEPTOR ANTAGONIST FOR THE TREATMENT OF PROSTATE CANCER” (THE UNIVERSITY OF BRITISH COLUMBIA, priority 2011, published 2014).
No constants are given. Whether binding was seen depends on the method and setting. Some results given as binding are weak or reduced against the parent protein; the word gives no strength.

Amino acid sequences for entries named in this document (tags omitted).
UniProt P10275: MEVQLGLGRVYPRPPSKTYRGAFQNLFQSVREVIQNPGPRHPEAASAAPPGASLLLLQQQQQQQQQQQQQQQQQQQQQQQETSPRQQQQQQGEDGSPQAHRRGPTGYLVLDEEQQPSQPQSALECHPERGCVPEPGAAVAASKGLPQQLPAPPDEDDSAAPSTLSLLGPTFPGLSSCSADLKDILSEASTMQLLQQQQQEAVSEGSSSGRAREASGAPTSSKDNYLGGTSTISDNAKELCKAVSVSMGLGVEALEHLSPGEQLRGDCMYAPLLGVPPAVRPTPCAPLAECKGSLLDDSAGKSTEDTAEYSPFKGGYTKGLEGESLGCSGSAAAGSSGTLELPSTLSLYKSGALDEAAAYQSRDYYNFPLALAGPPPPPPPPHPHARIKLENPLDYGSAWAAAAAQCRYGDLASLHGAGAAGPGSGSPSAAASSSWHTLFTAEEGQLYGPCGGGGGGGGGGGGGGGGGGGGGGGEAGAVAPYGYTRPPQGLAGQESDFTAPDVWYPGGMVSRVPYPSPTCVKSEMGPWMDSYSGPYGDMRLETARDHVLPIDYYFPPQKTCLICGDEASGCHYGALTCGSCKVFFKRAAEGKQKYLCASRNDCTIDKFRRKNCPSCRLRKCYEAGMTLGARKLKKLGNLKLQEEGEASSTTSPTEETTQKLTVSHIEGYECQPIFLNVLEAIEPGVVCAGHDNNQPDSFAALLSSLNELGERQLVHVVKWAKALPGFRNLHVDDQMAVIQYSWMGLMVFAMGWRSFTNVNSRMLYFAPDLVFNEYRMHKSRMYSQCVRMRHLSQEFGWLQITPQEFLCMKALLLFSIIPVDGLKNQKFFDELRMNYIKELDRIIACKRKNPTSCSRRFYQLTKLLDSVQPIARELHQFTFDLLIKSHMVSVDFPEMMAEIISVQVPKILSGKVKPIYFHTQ

Biological target: T1, FKBP52 (Hsp56) (UniProt Q02790)
T1 sequence (looked up): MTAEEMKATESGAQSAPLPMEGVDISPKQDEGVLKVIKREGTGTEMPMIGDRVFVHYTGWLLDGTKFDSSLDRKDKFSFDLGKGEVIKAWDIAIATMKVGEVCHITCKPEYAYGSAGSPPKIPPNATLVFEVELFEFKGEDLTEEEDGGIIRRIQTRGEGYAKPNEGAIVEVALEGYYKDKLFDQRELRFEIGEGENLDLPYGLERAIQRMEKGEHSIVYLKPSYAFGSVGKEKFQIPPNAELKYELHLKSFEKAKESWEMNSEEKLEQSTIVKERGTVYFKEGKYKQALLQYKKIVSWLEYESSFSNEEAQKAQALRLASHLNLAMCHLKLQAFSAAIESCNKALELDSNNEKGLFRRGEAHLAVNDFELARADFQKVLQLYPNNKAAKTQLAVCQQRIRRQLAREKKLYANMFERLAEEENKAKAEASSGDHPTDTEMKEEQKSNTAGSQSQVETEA
Assay: discussion of LNCaP cell data; method not given

androgen receptor (from UniProt P10275 1-920)
binding: binds
